Measurements as given in PubChem BioAssay AID1794844 (National Center for Advancing Translational Sciences (NCATS), 2023).
Hit rate of the full screen: of about 2,800 compounds, fewer than 10 were called active. Inconclusive results (about 7%) are left out. The call rests on the fitted dose curve; in most records, active means well fitted inhibition curve with a large enough effect; inconclusive means small, poorly fitted or top-dose-only effect; inactive means no such curve, though single readings can be large or run the other way. This is one part of the list.

Protein sequences, listed by entry. Tags and fused reporters are not part of them. Lines headed by an entry give the natural chain unless they say otherwise; changes in a name come on top.
UniProt C7C422: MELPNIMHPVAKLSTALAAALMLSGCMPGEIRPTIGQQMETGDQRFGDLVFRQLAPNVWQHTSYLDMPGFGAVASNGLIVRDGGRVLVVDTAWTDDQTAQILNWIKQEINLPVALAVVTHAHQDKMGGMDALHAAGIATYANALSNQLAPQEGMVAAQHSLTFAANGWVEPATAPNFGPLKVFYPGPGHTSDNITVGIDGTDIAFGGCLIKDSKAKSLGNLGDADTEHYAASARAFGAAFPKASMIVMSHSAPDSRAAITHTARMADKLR

Biological target: Metallo-beta-lactamase type 2 (Klebsiella pneumoniae) (UniProt C7C422)
Assay: qHTS to identify inhibitors of the New Delhi Metallo-beta-lactamase (NDM): Nitrocefin screen against the machine-based learning selections. Further: % of control where 0% means no effect.
Details: NDM-1 enzyme, nitrocefin hydrolysis, absorbance 485 nm; activity, negative = inhibition: at the top concentration
Method in brief: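 NDM-1 (2 nM final) in 50 mM HEPES pH 7.0, 1 uM Zn2SO4, 0.01% Tween20 was preincubated with compounds for >30 min. Nitrocefin (16.7 uM final) was read at 485 nm after 15 min, and meropenem (50 uM final) at 300 nm after 30 min.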

activity, negative = inhibition, inactive:
OCc1ccc(-c2cc(-c3ccncc3)c3cncn3c2)cc1 31.6% [at 57.5 µM]
Cc1ccc2nc(CO[C@H]3CN(Cc4ccc(Cl)cc4)C[C@H]3F)[nH]c2c1 2.27% [at 57.5 µM]
CC1=C[C@@H](CNC(=O)C2CC2)[C@H](C(C)C)C[C@H]1Cc1nc2ccncc2[nH]1 2.09% [at 57.5 µM]
COc1cccc(-c2cnc3[nH]cc(CC(=O)NCc4cccnc4)c3c2)c1 3.98% [at 57.5 µM]
CC1=C[C@@H](CNS(C)(=O)=O)[C@H](C(C)C)C[C@H]1CC(=O)NC1CCCC1 0.347% [at 57.5 µM]
O=C(NCC1CCOCC1)c1c[nH]c2ccccc12 -11.1%
CC(=O)c1ccc(NC(=O)N[C@H]2CO[C@H]3[C@@H]2OC[C@@H]3n2nnnc2Oc2cccc(N(C)C)c2)cc1 -1.96%
OC1(c2csc(CN3CCc4ccccc4C3)n2)CCN(C2CCOCC2)CC1 2.82% [at 57.5 µM]
COc1ccccc1C(=O)NCc1nnc2cc(-c3nc(C4CC4)no3)ccn12 -6.28%
CNc1ncc(C(=O)N2CCCC(CC=C(C)C)(C(=O)O)C2)cn1 (centres undefined) -3.1%
COc1cccc(CN[C@@H]2CCC[C@@H](C(=O)NC3CCOCC3)CC(=O)N(C)C2)c1 6.8% [at 57.5 µM]
N#Cc1cccnc1N1CCC(NC(=O)c2ccc3cccc(F)c3n2)CC1 -2.27%
COc1ccc(-c2cc(-c3cccc(O)c3)cn3cncc23)cc1 -22.7% [at 57.5 µM]
CN(CCc1ccccn1)[C@@H]1[C@H](O)[C@H](CO)O[C@@H]1CNS(=O)(=O)c1cccs1 -3.53%
COC[C@H]1CCCN1C(=O)[C@@H](C)C1CC[C@@]2(C)CC[C@H](NC(=O)CC(C)(C)C)[C@@H](C)[C@@H]2[C@H]1O (some centres undefined) -2.54%
Cn1nccc1C(=O)N1CCC(Cc2nc(C3CCOCC3)no2)CC1 2.9%
Cc1cc(C)cc(-c2ccc(C(=O)N3CCC(Oc4cccnc4)CC3)cn2)c1 0.58%
Oc1ccccc1-c1cnc2n[nH]c(-c3ccc4c(c3)OCO4)c2n1 10.3% [at 57.5 µM]
COc1ccc(-c2cnc3[nH]cc(CC(=O)NCCc4ccccn4)c3c2)cc1 25% [at 57.5 µM]
Oc1cccc(-c2cc3c(cn2)NCCN(Cc2ccccc2)C3)c1 6.41% [at 57.5 µM]
CN(C)c1ccc(-c2nnnn2[C@H]2CO[C@H]3[C@@H]2OC[C@@H]3NS(=O)(=O)c2ccc3ccccc3c2)cc1 -2.44%
O=C(NCCCc1nc2ccc(Cl)cc2[nH]1)[C@H]1CCC[C@@H](O)C1 1.17%
CC(C)(C)c1nnc([C@H]2CCN(C(=O)C3CC3)C2)o1 6.2% [at 76.7 µM]
Cc1ccccc1N1Cc2c(NCC3CC3)ncnc2N(C)CC1=O -9.86%
CCN1CC(C(=O)N(C)Cc2ccc(Oc3ccccc3)cc2)CCC1=O (centres undefined) -0.291%
O=C1OC[C@@H]2CCN(Cc3ccc4c(c3)OCO4)Cc3ccc(F)cc3N12 8.6% [at 57.5 µM]
N#Cc1ccc(C(=O)N2C[C@@H]3C[C@H](C2)c2c(/C=C/c4ccc(Cl)cc4)ccc(=O)n2C3)cc1 -0.105%
CCCc1noc(-c2ccn3c(CNC(=O)c4cccc(N(C)C)c4)nnc3c2)n1 -1.47%
CSc1ccc(-c2ccc3c(c2)C(=O)N2CCN(C(=O)CCC(=O)O)C[C@@H]2C(=O)N3)cc1 6.01%
COCCOc1ncccc1-c1noc([C@@H]2CCCN2CC(C)(C)C)n1 0.0168% [at 57.5 µM]
c1ccc(-c2ccc3ncc(Nc4cccnc4)n3n2)cc1 -0.0667% [at 76.7 µM]
O=C(C1CC(=O)N(c2n[nH]c3ccccc23)C1)N1CCC(c2nc3ccccc3[nH]2)CC1 (centres undefined) 2.58%
O=C(Nc1ccccc1Cl)N1CCC(Oc2ncccc2C(=O)N2CCCCC2)C1 (centres undefined) 1.84%
CS(=O)(=O)c1ccc(CN2C[C@H](O)C[C@H]2c2nc(-c3cnccn3)no2)cc1 0.786% [at 57.5 µM]
COc1ccc2nc3n(c2c1)[C@@H](CNC(=O)NC(C)C)COC3 -2% [at 57.5 µM]
Cc1ccccc1C(=O)N1C[C@@H](F)C[C@H]1C(=O)N1CCOCC1 -0.212%
Cc1ccc(O)c(CN2CC[C@@H](c3ccc4ccccc4c3)[C@H](O)C2)n1 7.16%
O=C1CO[C@H](c2ccc(NS(=O)(=O)c3cccc(F)c3)cc2)[C@@H](CO)N1Cc1ccncc1 -4.75%
N#Cc1cccc(NC(=O)O[C@@H]2CO[C@H]3[C@@H]2OC[C@@H]3Nc2nccc(-c3ccc4c(c3)OCO4)n2)c1 9.26%
COc1cccc(-c2nc3c([nH]2)CN(c2cc(C4CC4)ncn2)CC3)c1 4.21%
Cc1nnc(CN2CCN(C)C3(CCC(=O)N(CC(=O)O)CC3)C2)o1 (centres undefined) -4.3%
COc1ccc(CN2C(=O)[C@@H]3C[C@@H](CN3C3COC3)Oc3ccccc32)cc1 -4% [at 57.5 µM]
CN(C)C[C@H]1C[C@@H](CO)CN(C(=O)c2ccccc2OC(F)(F)C(F)F)C1 -4.32%
c1ccc(N2CC3(CN(CC4CC4)CC3CNc3cccnc3)C2)cc1 (centres undefined) 7.54% [at 57.5 µM]
CC(=O)c1[nH]c(C)c(C(=O)N2CCC3(CC2)[C@H](O)C[C@@H]3OCCO)c1C 3.47%
Cn1ccnc1CNCC1(COc2cccnc2)C[C@@H](O)[C@@H](O)C1 (some centres undefined) -13.7%
CN(Cc1cc(-c2cccs2)n[nH]1)C(=O)c1cn(CCN)nn1 3.42%
C=CCNC(=O)N[C@H]1CCN(C(=O)CC(C)(C)C)[C@@H]1C(=O)N[C@@H](C(=O)OC)C(C)C -4.68% [at 57.5 µM]
CC(C)CN(C(=O)CC1COc2ccc(C(=O)N(C)C)cc2N1C)C1CC1 (centres undefined) -5.95%
C[C@@H](NC(=O)[C@@]1(O)C[C@@H](O)[C@H](O)[C@@H](NC(=O)Nc2ccc(OC(F)(F)F)cc2)C1)C(N)=O -5.65%
CN1CCN(c2nc3c(s2)CN(C(=O)c2ccccc2)CC3)CC1 -1.94%
O=C(O)[C@H]1C[C@@H](C(=O)NCc2ccncc2)CN(C2CCOCC2)C1 -6.91%
CN1[C@@H](CCC(=O)N2CCC(O)CC2)CNC(=O)[C@@H]2[C@H]1CCN2Cc1cccc(OC(F)(F)F)c1 -0.719%
COc1ccc2nc(CO[C@H]3CN(C4CCC4)C[C@H]3F)[nH]c2c1 0.43% [at 57.5 µM]
COCC(=O)N[C@H]1C[C@H]2C(=O)NC[C@@H](CCC(=O)N3CCN(c4ccccn4)CC3)N2C1 -4.65%
O=C(CN1CC2CC(C1)[C@H]1CCCC(=O)N1C2)NCc1ccc2c(c1)OCO2 (some centres undefined) -0.216%
O=C(NCc1csc(-c2cnccn2)n1)C1NCCc2[nH]cnc21 (centres undefined) -2.75%
CNC(=O)c1cccc(-c2cnc(Nc3cccc(F)c3)c3c2CCO3)c1 -0.624% [at 57.5 µM]
COc1ccc(-c2cc(N3CCCC(NC(=O)c4cccn4C)C3)n[nH]2)cc1 (centres undefined) -7.8%

Fetched by structure from the list above, 2 records:
activity, negative = inhibition, inactive:
C[C@@H](NC(=O)[C@@]1(O)C[C@@H](O)[C@H](O)[C@@H](NC(=O)Nc2ccc(OC(F)(F)F)cc2)C1)C(N)=O -5.65%
N#Cc1cccc(NC(=O)O[C@@H]2CO[C@H]3[C@@H]2OC[C@@H]3Nc2nccc(-c3ccc4c(c3)OCO4)n2)c1 9.26%
